From ChEMBL document CHEMBL3988442, “University of Dundee, Small-Polar-MMV Screening Library” (2021).

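Assay of Toxoplasma gondii numbers, read through their beta-galactosidase reporter with a colour substrate. Concentration: 50 µM. The record gives no direction; the compounds picked for IC50 retests had high values, so higher reads as fewer parasites. Of about 18,000 compounds tested this way, about 170 (0.94%) reached 50% or more in at least one test.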

Values are the deposited “Percent Effect”, in %. The record does not define 0% and 100%; most values in the screen are far below 50% and negative numbers occur (in some assays of this library far below -100). The compounds are a random part of those screened.

{"smiles": "CN(C)c1ncccc1C(=O)OCCN1CCOC1=O", "Percent Effect": -17.42}
{"smiles": "CCN(CC)C(=O)CN(C)C(=O)c1cc(C)ccc1O", "Percent Effect": -5.751}
{"smiles": "COc1ccccc1C(=O)N1CC[C@H](N)C1", "Percent Effect": 1.167}
{"smiles": "COC(=O)c1ccccc1C#N", "Percent Effect": -13.24}
{"smiles": "Cc1n[nH]c(SCC(=O)NCCc2ccccc2)n1", "Percent Effect": 1.68}
{"smiles": "CC=Cc1ccc(OCC(N)=O)c(OC)c1", "Percent Effect": -2.985}
{"smiles": "CC(NCCCn1cccn1)c1ccc2c(c1)OCO2", "stereo": "stereo unspecified", "Percent Effect": 1.367}
{"smiles": "Nc1nc(SCc2ccccc2F)n[nH]1", "Percent Effect": 3.27}
{"smiles": "COc1ccc(CNC(=O)NCC2CC2)cn1", "Percent Effect": 0.6163}
{"smiles": "NC(=O)N1CCCC(C(=O)Nc2cc(Br)ccc2F)C1", "stereo": "stereo unspecified", "Percent Effect": -5.987}
{"smiles": "Cc1ccc(C(=O)CCN2CCOCC2C(N)=O)cc1", "stereo": "stereo unspecified", "Percent Effect": 25.69}
{"smiles": "CC(O)CN(CCCNS(C)(=O)=O)C1CCCCC1", "stereo": "stereo unspecified", "Percent Effect": 0}
{"smiles": "CC(C)C1CN(C(=O)CCc2ccccn2)CCS1", "stereo": "stereo unspecified", "Percent Effect": -24.69}
{"smiles": "CCNC(=O)C1CCN(C(=O)Cc2cccc(O)c2)C1", "stereo": "stereo unspecified", "Percent Effect": -5.389}
{"smiles": "CCCn1nnc(NC(=O)c2cccnc2)n1", "Percent Effect": 14.92}
{"smiles": "N#Cc1c(N)nc2c(c1-c1ccccc1)C(=O)CCC2", "Percent Effect": 5.203}
{"smiles": "CCc1ccnc(C(=O)NC(C)(CO)CO)c1", "Percent Effect": 4.055}
{"smiles": "CCN1CCC(CNC(=O)N(C)Cc2cc(C)on2)C1", "stereo": "stereo unspecified", "Percent Effect": 22.52}
{"smiles": "O=C(NCC(O)c1ccc(Cl)cc1)Nc1ccccn1", "stereo": "stereo unspecified", "Percent Effect": 1.366}
{"smiles": "CC(N)c1cccc(N2CCCC2)c1", "stereo": "stereo unspecified", "Percent Effect": -19.8}
{"smiles": "CC(=O)c1c[nH]c(C(=O)NCc2ccccc2O)c1", "Percent Effect": -4.06}
{"smiles": "COc1cc(NC(=O)N2CCCN(C)CC2)ccc1Cl", "Percent Effect": -2.695}
{"smiles": "CN1CCN(C(N)=O)C(c2ccccc2)C1", "stereo": "stereo unspecified", "Percent Effect": -2.537}
{"smiles": "CCN1CCN(c2c(Cl)cccc2NC(C)=O)CC1", "Percent Effect": -14.08}
{"smiles": "NCC1CCN(C2CCCC2)C1", "stereo": "stereo unspecified", "Percent Effect": -0.7574}
{"smiles": "Cc1ccccc1C(=O)N[C@H](CO)C(C)C", "Percent Effect": -12.58}
{"smiles": "Cn1c(C(=O)N2CCCS2(=O)=O)cc2ccccc21", "Percent Effect": -2.356}
{"smiles": "Cc1csc(S(=O)(=O)NCCCOCC2CCCO2)n1", "stereo": "stereo unspecified", "Percent Effect": -3.897}
{"smiles": "CNC(C)c1ccccc1N1CCCS1(=O)=O", "stereo": "stereo unspecified", "Percent Effect": 18.98}
{"smiles": "CN(C(=O)c1ccoc1Br)c1cc(C#N)ccn1", "Percent Effect": -6.983}
{"smiles": "NS(=O)(=O)c1ncccn1", "Percent Effect": 18.57}
{"smiles": "CN1C(=O)COc2cc(NC(=O)C3CC=CC3)ccc21", "Percent Effect": -6.011}
{"smiles": "Cc1nccn1CCNC(=O)OC(C)(C)C", "Percent Effect": 7.593}
{"smiles": "CC(C)c1nc(CNCC2CCN(CCO)CC2)no1", "Percent Effect": -1.219}
{"smiles": "N[C@@H]1c2ccccc2C[C@@H]1O", "Percent Effect": 21.1}
{"smiles": "CC(Cn1cccn1)NCc1ccncc1", "stereo": "stereo unspecified", "Percent Effect": 1.166}
{"smiles": "Cc1nn(C)cc1C(=O)N1CCOC2(CCCC2)C1", "Percent Effect": 5.531}
{"smiles": "Clc1ccc(CN2CCNCC2)nc1", "Percent Effect": -43.03}
{"smiles": "COCC(C)NC(=O)CNc1ccc(OC)c(Br)c1", "stereo": "stereo unspecified", "Percent Effect": -1.99}
{"smiles": "NC(=O)NC(=O)CSc1ncccn1", "Percent Effect": -2.425}